Reference: the supplement of paper PMC10849652
Some of the results follow.

The chains behind the UniProt entries cited, without tags or fusion partners. Where a name states a change or a piece, a line headed by the entry shows the natural chain unless it says otherwise.
UniProt Q86UL3: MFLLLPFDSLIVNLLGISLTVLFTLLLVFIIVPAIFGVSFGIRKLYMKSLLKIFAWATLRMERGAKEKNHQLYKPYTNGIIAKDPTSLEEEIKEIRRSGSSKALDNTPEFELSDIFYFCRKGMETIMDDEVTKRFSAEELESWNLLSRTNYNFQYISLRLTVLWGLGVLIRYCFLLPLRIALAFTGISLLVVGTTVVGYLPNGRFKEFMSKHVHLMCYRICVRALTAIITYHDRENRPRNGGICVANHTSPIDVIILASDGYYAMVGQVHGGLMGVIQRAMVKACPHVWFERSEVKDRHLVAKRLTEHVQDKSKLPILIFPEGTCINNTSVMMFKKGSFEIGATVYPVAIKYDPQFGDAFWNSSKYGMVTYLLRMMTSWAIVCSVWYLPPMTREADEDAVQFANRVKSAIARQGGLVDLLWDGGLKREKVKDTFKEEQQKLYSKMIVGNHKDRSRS
UniProt Q8TDQ7: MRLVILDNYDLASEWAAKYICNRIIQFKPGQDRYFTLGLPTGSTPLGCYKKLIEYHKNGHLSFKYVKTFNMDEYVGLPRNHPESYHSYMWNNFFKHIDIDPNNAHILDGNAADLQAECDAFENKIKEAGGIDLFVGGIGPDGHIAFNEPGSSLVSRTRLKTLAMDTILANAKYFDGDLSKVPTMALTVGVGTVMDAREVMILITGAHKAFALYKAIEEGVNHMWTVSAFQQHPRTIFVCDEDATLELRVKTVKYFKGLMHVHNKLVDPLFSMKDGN
UniProt P62879, whole entry, looked up: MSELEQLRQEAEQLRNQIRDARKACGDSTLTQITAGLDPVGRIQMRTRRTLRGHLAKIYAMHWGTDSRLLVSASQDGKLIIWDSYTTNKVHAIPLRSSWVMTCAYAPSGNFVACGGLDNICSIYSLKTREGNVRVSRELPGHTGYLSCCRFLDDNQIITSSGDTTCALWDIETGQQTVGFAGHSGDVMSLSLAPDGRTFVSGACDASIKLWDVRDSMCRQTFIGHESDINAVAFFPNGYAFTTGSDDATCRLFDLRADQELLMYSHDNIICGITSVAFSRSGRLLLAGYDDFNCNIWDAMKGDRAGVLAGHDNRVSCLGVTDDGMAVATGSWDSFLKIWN
UniProt O43292: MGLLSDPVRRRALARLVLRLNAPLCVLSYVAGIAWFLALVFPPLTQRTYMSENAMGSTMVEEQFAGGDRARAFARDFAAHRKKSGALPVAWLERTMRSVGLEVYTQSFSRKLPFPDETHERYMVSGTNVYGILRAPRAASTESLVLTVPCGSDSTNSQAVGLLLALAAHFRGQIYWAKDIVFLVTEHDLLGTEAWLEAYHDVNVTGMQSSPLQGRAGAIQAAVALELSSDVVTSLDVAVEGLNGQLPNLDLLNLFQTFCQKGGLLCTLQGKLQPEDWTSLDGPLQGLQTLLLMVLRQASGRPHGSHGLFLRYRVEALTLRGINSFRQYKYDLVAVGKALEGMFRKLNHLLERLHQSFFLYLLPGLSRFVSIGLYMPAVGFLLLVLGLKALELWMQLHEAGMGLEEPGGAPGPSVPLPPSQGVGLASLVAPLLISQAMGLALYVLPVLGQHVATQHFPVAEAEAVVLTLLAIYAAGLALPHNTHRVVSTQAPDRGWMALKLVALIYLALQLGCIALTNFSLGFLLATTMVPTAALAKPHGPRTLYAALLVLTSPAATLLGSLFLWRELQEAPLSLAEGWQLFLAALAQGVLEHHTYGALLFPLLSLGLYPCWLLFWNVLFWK
UniProt O14653: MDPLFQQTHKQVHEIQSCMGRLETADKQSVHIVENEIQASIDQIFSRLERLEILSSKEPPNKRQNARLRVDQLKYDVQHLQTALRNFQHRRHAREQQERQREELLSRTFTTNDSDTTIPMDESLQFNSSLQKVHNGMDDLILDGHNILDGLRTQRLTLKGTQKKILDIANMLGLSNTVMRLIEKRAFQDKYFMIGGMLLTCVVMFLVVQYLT
UniProt Q9Y223: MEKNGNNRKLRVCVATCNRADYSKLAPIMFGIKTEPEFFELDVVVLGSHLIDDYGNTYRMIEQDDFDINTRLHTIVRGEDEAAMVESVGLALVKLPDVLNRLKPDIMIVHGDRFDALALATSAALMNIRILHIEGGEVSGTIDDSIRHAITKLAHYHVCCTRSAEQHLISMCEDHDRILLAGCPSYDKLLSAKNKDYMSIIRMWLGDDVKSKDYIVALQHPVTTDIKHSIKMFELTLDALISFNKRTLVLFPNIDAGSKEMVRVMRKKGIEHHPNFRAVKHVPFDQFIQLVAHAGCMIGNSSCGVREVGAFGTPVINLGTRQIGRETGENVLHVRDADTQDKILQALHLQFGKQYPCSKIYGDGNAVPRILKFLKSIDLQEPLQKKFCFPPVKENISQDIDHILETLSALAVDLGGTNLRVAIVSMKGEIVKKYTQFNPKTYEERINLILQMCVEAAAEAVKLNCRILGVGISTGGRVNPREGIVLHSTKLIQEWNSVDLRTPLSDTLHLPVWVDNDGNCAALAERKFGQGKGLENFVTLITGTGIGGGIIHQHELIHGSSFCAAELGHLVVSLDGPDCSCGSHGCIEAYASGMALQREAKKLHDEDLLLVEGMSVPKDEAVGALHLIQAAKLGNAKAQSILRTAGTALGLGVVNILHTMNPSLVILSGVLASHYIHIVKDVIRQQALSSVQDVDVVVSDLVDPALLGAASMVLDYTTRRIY
UniProt P29992, whole entry, looked up: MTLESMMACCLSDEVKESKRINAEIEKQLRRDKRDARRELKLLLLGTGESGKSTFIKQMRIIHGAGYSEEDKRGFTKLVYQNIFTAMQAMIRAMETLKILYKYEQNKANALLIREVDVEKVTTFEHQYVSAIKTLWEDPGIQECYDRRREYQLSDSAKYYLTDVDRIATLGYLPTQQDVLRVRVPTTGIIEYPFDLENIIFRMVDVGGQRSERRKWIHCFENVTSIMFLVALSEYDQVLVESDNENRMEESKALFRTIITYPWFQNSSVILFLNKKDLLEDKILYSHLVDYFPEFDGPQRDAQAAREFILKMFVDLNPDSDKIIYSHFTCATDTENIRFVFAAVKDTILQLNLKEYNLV
UniProt P15104, whole entry, looked up: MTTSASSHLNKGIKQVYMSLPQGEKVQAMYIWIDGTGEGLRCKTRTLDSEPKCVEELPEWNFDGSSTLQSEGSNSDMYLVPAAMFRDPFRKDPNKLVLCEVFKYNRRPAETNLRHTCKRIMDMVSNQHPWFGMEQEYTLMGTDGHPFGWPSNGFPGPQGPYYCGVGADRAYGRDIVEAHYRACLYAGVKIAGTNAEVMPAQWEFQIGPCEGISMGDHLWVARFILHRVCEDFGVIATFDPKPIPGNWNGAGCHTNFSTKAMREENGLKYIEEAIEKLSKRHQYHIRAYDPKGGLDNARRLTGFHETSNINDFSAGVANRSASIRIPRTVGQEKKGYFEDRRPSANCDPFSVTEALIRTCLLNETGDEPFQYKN
UniProt O94925: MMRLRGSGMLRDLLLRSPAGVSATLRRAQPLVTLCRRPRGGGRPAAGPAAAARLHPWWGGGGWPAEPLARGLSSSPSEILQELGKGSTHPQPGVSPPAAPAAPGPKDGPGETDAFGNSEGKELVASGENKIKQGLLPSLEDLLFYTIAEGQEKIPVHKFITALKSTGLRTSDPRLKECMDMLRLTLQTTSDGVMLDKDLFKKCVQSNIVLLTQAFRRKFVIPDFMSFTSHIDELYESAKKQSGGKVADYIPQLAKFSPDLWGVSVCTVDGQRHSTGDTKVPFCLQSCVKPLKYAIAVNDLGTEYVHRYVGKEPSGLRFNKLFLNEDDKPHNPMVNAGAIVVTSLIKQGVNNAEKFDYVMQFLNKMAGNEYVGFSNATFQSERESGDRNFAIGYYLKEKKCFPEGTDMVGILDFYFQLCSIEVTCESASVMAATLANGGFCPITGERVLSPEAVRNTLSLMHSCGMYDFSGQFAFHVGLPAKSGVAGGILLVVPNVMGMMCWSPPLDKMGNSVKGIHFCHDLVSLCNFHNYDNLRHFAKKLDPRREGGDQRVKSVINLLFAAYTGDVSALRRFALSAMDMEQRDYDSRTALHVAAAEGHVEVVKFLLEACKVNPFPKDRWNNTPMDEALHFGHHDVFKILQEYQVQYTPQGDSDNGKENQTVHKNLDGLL
UniProt O60547: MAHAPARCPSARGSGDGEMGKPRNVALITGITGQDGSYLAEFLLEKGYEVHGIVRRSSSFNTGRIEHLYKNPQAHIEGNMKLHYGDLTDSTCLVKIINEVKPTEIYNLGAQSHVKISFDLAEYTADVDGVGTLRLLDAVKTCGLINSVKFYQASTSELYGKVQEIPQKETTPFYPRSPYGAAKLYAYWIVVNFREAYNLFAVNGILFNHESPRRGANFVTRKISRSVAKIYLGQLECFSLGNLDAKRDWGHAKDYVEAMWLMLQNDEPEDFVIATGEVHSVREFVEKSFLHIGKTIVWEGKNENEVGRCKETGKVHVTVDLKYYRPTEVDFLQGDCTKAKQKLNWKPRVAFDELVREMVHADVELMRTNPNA
UniProt Q14691: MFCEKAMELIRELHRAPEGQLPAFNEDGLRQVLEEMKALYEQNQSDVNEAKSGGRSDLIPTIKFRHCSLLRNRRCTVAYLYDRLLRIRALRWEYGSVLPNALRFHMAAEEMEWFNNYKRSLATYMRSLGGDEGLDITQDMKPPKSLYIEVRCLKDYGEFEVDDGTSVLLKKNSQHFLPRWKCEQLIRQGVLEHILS
UniProt O60234, whole entry, looked up: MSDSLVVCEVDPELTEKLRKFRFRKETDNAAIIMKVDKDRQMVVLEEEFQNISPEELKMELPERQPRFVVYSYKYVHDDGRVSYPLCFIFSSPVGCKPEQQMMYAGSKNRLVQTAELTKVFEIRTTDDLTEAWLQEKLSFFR
UniProt P17900: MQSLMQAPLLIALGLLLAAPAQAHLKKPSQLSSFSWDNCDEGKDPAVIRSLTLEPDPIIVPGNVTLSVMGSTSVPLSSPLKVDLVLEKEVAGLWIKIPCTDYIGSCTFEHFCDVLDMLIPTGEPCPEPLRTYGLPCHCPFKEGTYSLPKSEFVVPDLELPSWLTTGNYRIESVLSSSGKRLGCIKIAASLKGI
UniProt Q14161: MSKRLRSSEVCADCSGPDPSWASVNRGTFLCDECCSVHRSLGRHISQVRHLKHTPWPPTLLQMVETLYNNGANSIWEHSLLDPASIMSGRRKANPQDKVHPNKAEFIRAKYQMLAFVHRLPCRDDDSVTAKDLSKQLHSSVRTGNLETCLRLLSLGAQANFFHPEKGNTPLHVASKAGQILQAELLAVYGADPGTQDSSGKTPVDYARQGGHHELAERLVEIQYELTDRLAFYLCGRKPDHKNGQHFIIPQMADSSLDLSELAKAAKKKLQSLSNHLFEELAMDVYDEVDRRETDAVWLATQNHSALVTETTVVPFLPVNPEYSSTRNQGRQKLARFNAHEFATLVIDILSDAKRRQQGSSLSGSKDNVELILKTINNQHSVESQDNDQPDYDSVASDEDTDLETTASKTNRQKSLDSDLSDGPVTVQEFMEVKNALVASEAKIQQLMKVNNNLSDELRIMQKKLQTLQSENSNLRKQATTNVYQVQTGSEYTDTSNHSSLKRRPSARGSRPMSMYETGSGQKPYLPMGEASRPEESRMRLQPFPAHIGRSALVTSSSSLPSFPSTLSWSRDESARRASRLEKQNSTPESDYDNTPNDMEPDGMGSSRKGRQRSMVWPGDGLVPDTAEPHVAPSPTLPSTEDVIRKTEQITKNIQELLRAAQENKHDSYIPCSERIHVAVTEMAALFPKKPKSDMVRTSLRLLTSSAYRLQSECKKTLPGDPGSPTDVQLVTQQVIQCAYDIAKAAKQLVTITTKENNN
UniProt Q9NS18: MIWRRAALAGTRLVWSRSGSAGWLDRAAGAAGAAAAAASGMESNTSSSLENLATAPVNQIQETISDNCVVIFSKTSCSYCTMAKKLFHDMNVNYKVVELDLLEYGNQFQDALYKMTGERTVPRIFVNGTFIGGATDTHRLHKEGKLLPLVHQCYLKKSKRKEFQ
UniProt Q9HC44: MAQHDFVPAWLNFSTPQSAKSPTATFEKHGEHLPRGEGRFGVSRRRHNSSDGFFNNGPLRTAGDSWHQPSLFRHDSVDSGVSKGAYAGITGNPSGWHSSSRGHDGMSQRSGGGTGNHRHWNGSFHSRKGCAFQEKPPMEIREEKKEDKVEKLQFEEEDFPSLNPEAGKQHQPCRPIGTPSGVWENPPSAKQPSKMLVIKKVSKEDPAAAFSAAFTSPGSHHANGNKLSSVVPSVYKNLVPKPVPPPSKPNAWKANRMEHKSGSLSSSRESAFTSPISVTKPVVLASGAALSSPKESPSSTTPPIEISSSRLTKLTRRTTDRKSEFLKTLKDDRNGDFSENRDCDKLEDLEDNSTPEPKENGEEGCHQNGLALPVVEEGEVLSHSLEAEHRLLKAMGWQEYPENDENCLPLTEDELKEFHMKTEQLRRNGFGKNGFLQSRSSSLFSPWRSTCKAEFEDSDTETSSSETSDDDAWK
UniProt O95249: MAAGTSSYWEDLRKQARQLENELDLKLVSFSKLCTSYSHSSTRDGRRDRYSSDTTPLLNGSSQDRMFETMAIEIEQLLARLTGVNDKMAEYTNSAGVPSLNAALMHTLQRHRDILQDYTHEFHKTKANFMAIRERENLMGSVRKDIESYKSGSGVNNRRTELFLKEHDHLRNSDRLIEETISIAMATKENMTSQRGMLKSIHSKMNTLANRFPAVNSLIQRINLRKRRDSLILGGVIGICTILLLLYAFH

How the values were obtained:
Assay in all cases: log2 fold change, soluble protein after heating vs DMSO (PISA); higher = thermal stabilisation; K562 lysate, 10 uM; active = over 0.2 and 3.5 SD of the protein, either way, in both replicates (recomputed)
erlotinib = compound: C#Cc1cccc(Nc2ncnc3cc(OCCOC)c(OCCOC)cc23)c1 [erlotinib]
Procedure, shortened: (§1)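 Log-two fold change in thermal stability relative to solvent controls is reported from duplicates. For each sample, crude K562 extract from dounce-homogenised pellets in PBS pH 7.4 with 1 mM MgCl2, at 1 mg/mL protein, was treated with 10 μM compound for 30 min. Aliquots heated for 3 min across 48°C-58°C were pooled, brought to 0.5% NP-40 at 4°C and cleared at 21,000xg for 90 min. The supernatant was quantified by TMTpro 16plex LC-MS/MS with channel sums equalised.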

[1] = compound: C/C(=N\NC(=O)C1=CC(=CC=C1)S(=O)(=O)N2CCOCC2)/C3=C(C=CC(=C3)Cl)O
Procedure, shortened: as §1

[2] = compound: C1=CC(=CC=C1C2=NC3=C(N2)C=C(C=C3)C(=O)N)OC4=CC=C(C=C4)Cl
Procedure, shortened: as §1

[3] = compound: C1=CC2=C(C=CC(=C2)/C=C\3/C(=O)NC(=NCC4=CC=CS4)S3)N=C1
Procedure, shortened: as §1

[4] = compound: C1=CC2=NC=CN=C2C=C1/C=C/3\C(=O)NC(=O)S3
Procedure, shortened: as §1

[5] = compound: C1=CC=C(C=C1)C2=NC(=C(N2)C3=CC=NC=C3)C4=CC(=C(C=C4)Cl)O
Procedure, shortened: as §1

[6] = compound: C1=CC=C2C(=C1)C3=NNC4=CC=CC(=C43)C2=O
Procedure, shortened: as §1

[7] = compound: C1CCN(C1)C(=O)NC2=CC=CC(=C2)NC3=NC=C(C(=N3)NCCC4=CN=CN4)Br
Procedure, shortened: as §1

[8] = compound: C1CN(CCC1(CC2=CC=C(C=C2)Cl)N)C3=NC=NC4=C3C=CN4
Procedure, shortened: as §1

IRAK-1-4 Inhibitor I = compound: C1COCCN1CCN2C3=CC=CC=C3N=C2NC(=O)C4=CC(=CC=C4)[N+](=O)[O-] [IRAK-1-4 Inhibitor I]
Procedure, shortened: as §1

Measured: log2 fold change

GPAT4 (UniProt Q86UL3)
inactive: erlotinib -0.034 | [1] -0.014 | [2] 0.025 | [3] -0.042 | [4] 0.014 | [5] -0.03 | [6] -0.045 | [7] -0.027 | [8] 0.038 | IRAK-1-4 Inhibitor I 0.014

GNPDA2 (UniProt Q8TDQ7)
inactive: erlotinib -0.006 | [1] 0.038 | [2] 0.012 | [3] -0.008 | [4] -0.025 | [5] 0.058 | [6] 0.122 | [7] -0.076 | [8] -0.008 | IRAK-1-4 Inhibitor I 0.004

GPATCH1 (UniProt Q9BRR8)
inactive: erlotinib 0.046 | [1] 0.038 | [2] -0.059 | [3] -0.073 | [4] -0.092 | [5] 0.039 | [6] 0.017 | [7] -0.031 | [8] 0.01 | IRAK-1-4 Inhibitor I 0.013

GNB2 (UniProt P62879)
inactive: erlotinib 0.013 | [1] 0.063 | [2] -0.068 | [3] 0.021 | [4] 0.035 | [5] 0.022 | [6] -0.008 | [7] 0.03 | [8] 0.035 | IRAK-1-4 Inhibitor I 0.006

GPAA1 (UniProt O43292)
inactive: erlotinib 0.029 | [1] -0.118 | [2] -0.054 | [3] -0.009 | [4] -0.014 | [5] -0.032 | [6] -0.116 | [7] -0.008 | [8] -0.004 | IRAK-1-4 Inhibitor I 0.054

GOSR2 isoform 2 (UniProt O14653)
inactive: erlotinib 0.022 | [1] -0.024 | [2] -0.14 | [3] -0.029 | [4] -0.043 | [5] -0.011 | [6] -0.129 | [7] 0.014 | [8] -0.002 | IRAK-1-4 Inhibitor I 0.023

GOPC (UniProt Q9HD26)
inactive: erlotinib -0.023 | [1] -0.084 | [2] 0.01 | [3] 0.001 | [4] -0.005 | [5] -0.003 | [6] -0.02 | [7] -0.018 | [8] -0.013 | IRAK-1-4 Inhibitor I -0.036

GLA (UniProt P06280)
inactive: erlotinib 0 | [1] -0.015 | [2] -0.026 | [3] 0.009 | [4] -0.017 | [5] 0.033 | [6] -0.1 | [7] -0.044 | [8] 0.036 | IRAK-1-4 Inhibitor I 0.002

GNE isoform 2 (UniProt Q9Y223)
inactive: erlotinib 0.035 | [1] -0.067 | [2] -0.042 | [3] -0.032 | [4] 0.011 | [5] 0.064 | [6] -0.031 | [7] -0.024 | [8] 0.023 | IRAK-1-4 Inhibitor I -0.042

GPS2 (UniProt Q13227)
inactive: erlotinib -0.003 | [1] 0.002 | [2] 0.105 | [3] 0.078 | [4] 0.096 | [5] -0.042 | [6] 0.019 | [7] 0.022 | [8] 0.038 | IRAK-1-4 Inhibitor I 0.022

GNA11 (UniProt P29992)
inactive: erlotinib -0.034 | [1] 0.044 | [2] -0.027 | [3] -0.101 | [4] 0.035 | [5] -0.025 | [6] -0.001 | [7] 0.007 | [8] 0.015 | IRAK-1-4 Inhibitor I 0.025

GLUD2 (UniProt P49448)
inactive: erlotinib -0.017 | [1] -0.016 | [2] -0.053 | [3] 0.028 | [4] -0.057 | [5] -0.014 | [6] -0.09 | [7] -0.119 | [8] 0.029 | IRAK-1-4 Inhibitor I 0.113

GLUL (UniProt P15104)
inactive: erlotinib -0.003 | [1] 0.032 | [2] -0.002 | [3] 0.029 | [4] -0.03 | [5] 0.005 | [6] 0.007 | [7] 0.013 | [8] 0.017 | IRAK-1-4 Inhibitor I -0.017

GLMN (UniProt Q92990)
inactive: erlotinib -0.016 | [1] -0.011 | [2] 0.039 | [3] 0.01 | [4] 0.029 | [5] 0.007 | [6] -0.025 | [7] -0.002 | [8] -0.013 | IRAK-1-4 Inhibitor I 0

GNL1 (UniProt P36915)
inactive: erlotinib -0.002 | [1] 0.01 | [2] -0.022 | [3] 0 | [4] -0.025 | [5] 0.007 | [6] -0.039 | [7] 0.012 | [8] -0.012 | IRAK-1-4 Inhibitor I -0.006

GLB1L2 (UniProt Q8IW92)
inactive: erlotinib -0.059 | [1] 0.028 | [2] -0.063 | [3] -0.015 | [4] -0.017 | [5] -0.029 | [6] -0.017 | [7] -0.056 | [8] 0.121 | IRAK-1-4 Inhibitor I -0.022

GLS isoform 3 (UniProt O94925)
inactive: erlotinib 0.006 | [1] 0.014 | [2] -0.035 | [3] 0.047 | [4] 0.047 | [5] -0.009 | [6] -0.063 | [7] -0.009 | [8] 0.013 | IRAK-1-4 Inhibitor I 0.007

GMDS (UniProt O60547)
inactive: erlotinib 0.017 | [1] 0.005 | [2] 0.029 | [3] -0.054 | [4] -0.012 | [5] -0.023 | [6] -0.043 | [7] 0.019 | [8] 0.036 | IRAK-1-4 Inhibitor I 0.01

GNPDA1 (UniProt P46926)
inactive: erlotinib -0.021 | [1] 0.013 | [2] -0.01 | [3] -0.006 | [4] 0.002 | [5] 0.014 | [6] 0.027 | [7] 0.016 | [8] -0.03 | IRAK-1-4 Inhibitor I 0.013

GINS1 (UniProt Q14691)
inactive: erlotinib -0.048 | [1] 0.076 | [2] 0.031 | [3] 0.029 | [4] 0.044 | [5] -0.005 | [6] -0.004 | [7] -0.037 | [8] 0.012 | IRAK-1-4 Inhibitor I 0

GMFG (UniProt O60234)
inactive: erlotinib -0.029 | [1] -0.089 | [2] -0.012 | [3] -0.007 | [4] -0.022 | [5] -0.05 | [6] 0.044 | [7] 0.034 | [8] 0.012 | IRAK-1-4 Inhibitor I -0.023

GM2A (UniProt P17900)
inactive: erlotinib 0.052 | [1] 0.11 | [2] -0.022 | [3] -0.04 | [4] 0.166 | [5] 0.021 | [6] -0.036 | [7] -0.012 | [8] 0 | IRAK-1-4 Inhibitor I -0.054

GIT2 (UniProt Q14161)
inactive: erlotinib 0.024 | [1] 0.028 | [2] 0.074 | [3] -0.032 | [4] -0.063 | [5] -0.009 | [6] -0.117 | [7] 0 | [8] 0.122 | IRAK-1-4 Inhibitor I 0.013

GLRX2 (UniProt Q9NS18)
inactive: erlotinib 0.006 | [1] 0.04 | [2] 0.02 | [3] 0.022 | [4] 0.035 | [5] 0.049 | [6] 0.04 | [7] 0.128 | [8] 0.09 | IRAK-1-4 Inhibitor I 0.003

GON7 (UniProt Q9BXV9)
inactive: erlotinib -0.004 | [1] 0.727 | [2] 0.077 | [3] 0.009 | [4] -0.062 | [5] -0.005 | [6] -0.095 | [7] 0.094 | [8] 0.072 | IRAK-1-4 Inhibitor I -0.041

GGH (UniProt Q92820)
inactive: erlotinib -0.004 | [1] 0.058 | [2] 0.034 | [3] 0.02 | [4] 0.007 | [5] -0.018 | [6] 0.048 | [7] 0.015 | [8] 0.017 | IRAK-1-4 Inhibitor I -0.003

GNAS (UniProt Q5JWF2)
inactive: erlotinib 0.003 | [1] 0.061 | [2] -0.04 | [3] -0.004 | [4] 0.028 | [5] 0.002 | [6] 0.034 | [7] 0.005 | [8] 0.043 | IRAK-1-4 Inhibitor I -0.024

GPBP1L1 (UniProt Q9HC44)
inactive: erlotinib 0 | [1] -0.048 | [2] 0.065 | [3] 0.012 | [4] -0.023 | [5] -0.005 | [6] 0.061 | [7] -0.005 | [8] -0.045 | IRAK-1-4 Inhibitor I 0.057

GPHN isoform 2 (UniProt Q9NQX3)
inactive: erlotinib 0.001 | [1] 0.003 | [2] 0.02 | [3] -0.01 | [4] -0.018 | [5] 0.024 | [6] 0.018 | [7] 0.002 | [8] 0.016 | IRAK-1-4 Inhibitor I 0.002

GOSR1 (UniProt O95249)
inactive: erlotinib -0.028 | [1] 0.015 | [2] -0.166 | [3] -0.076 | [4] -0.009 | [5] -0.004 | [6] -0.091 | [7] 0.086 | [8] -0.032 | IRAK-1-4 Inhibitor I -0.008

2 entries drawn at random from those above, as already listed:
GLB1L2 (UniProt Q8IW92)
inactive: erlotinib -0.059 | [1] 0.028 | [2] -0.063 | [3] -0.015 | [4] -0.017 | [5] -0.029 | [6] -0.017 | [7] -0.056 | [8] 0.121 | IRAK-1-4 Inhibitor I -0.022

GLS isoform 3 (UniProt O94925)
inactive: erlotinib 0.006 | [1] 0.014 | [2] -0.035 | [3] 0.047 | [4] 0.047 | [5] -0.009 | [6] -0.063 | [7] -0.009 | [8] 0.013 | IRAK-1-4 Inhibitor I 0.007
